Changes are numbered by the printed parent chain. No constants are given. Whether binding was seen depends on the method and setting.
Assays:
Experiment in all cases: SEC; analytical Superdex 75 10/300 GL, purified protein loaded at 500 μM; calibrated with BSA, ovalbumin, ribonuclease A and aprotinin; check of the monomeric state; both purified
[1] = molecular target: T1, Sac7d (Sulfolobus acidocaldarius) (UniProt P13123)
T1 sequence: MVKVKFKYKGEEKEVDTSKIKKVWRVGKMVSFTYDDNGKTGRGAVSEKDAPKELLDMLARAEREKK

[2] = molecular target: Sis7a (Sulfolobus islandicus) (UniProt D2PHL8)
[3] = molecular target: Sis7b (Sulfolobus islandicus) (UniProt F0NJT3)
[4] = molecular target: T2, Ssh7a (Sulfolobus shibatae) (UniProt P61990)
T2 sequence: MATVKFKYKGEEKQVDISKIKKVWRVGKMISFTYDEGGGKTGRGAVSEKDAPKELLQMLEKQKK

[5] = molecular target: T3, Sso7d (Sulfolobus solfataricus) (UniProt P39476)
T3 sequence: T2 sequence with Q14E

[6] = molecular target: T4, Sac7e (Sulfolobus acidocaldarius) (UniProt P13125)
T4 sequence: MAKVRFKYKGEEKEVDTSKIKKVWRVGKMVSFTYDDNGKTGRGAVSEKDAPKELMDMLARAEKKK

[7] = molecular target: Mse7 (Metallosphaera sedula) (UniProt A4YEA2)
[8] = molecular target: Mcu7 (Metallosphaera cuprina) (UniProt F4FYY6)
[9] = molecular target: T5, Aho7b (Acidianus hospitalis) (UniProt F4B9I5)
T5 sequence: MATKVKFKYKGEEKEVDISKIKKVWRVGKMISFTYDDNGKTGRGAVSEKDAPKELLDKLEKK

[10] = molecular target: Sto7 (Sulfolobus tokodaii) (UniProt Q96X56)
[11] = molecular target: T6, Ssh7b (Sulfolobus shibatae) (UniProt O59632)
T6 sequence: T2 sequence with A2V, Q14E, I17T

B1: Sac7d (protein, UniProt P13123 1-66)
chain: MVKVKFKYKGEEKEVDTSKIKKVWRVGKMVSFTYDDNGKTGRGAVSEKDAPKELLDMLARAEREKKLN
binding [1]: no binding (tested: 500 μM)

B2: Sis7a (protein, UniProt D2PHL8 1-64)
chain: MTTVKFKYKGEEKQVDISKIKKVWRVGKMISFTYDEGGGKTGRGAVSEKDAPKELLQMLEKQKKLN
binding [2]: no binding (tested: 500 μM)

B3: Sis7b (protein, UniProt F0NJT3 1-64)
chain: B2 chain with I17T
binding [3]: no binding (tested: 500 μM)

B4: Ssh7a (protein, UniProt P61990 1-64)
chain: B2 chain with T2A
binding [4]: no binding (tested: 500 μM)

B5: Sso7d (protein, UniProt P39476 1-64)
chain: B2 chain with T2A, Q14E
binding [5]: no binding (tested: 500 μM)

B6: Sac7e (protein, UniProt P13125 1-65)
chain: MAKVRFKYKGEEKEVDTSKIKKVWRVGKMVSFTYDDNGKTGRGAVSEKDAPKELMDMLARAEKKKLN
binding [6]: no binding (tested: 500 μM)

B7: Mse7 (protein, UniProt A4YEA2 1-62)
chain: MATKIKFKYKGQDLEVDISKVKKVWKVGKMVSFTYDDNGKTGRGAVSEKDAPKELLNMIGKKLN
binding [7]: no binding (tested: 500 μM)

B8: Mcu7 (protein, UniProt F4FYY6 1-62)
chain: B7 chain with N57S
binding [8]: no binding (tested: 500 μM)

B9: Aho7b (protein, UniProt F4B9I5 1-62)
chain: MATKVKFKYKGEEKEVDISKIKKVWRVGKMISFTYDDNGKTGRGAVSEKDAPKELLDKLEKKLN
binding [9]: no binding (tested: 500 μM)

B10: Sto7 (protein, UniProt Q96X56 1-64)
chain: MVTVKFKYKGEEKEVDISKIKKVWRVGKMISFTYDDNGKTGRGAVSEKDAPKELLQMLEKSGKKLN
binding [10]: no binding (tested: 500 μM)

B11: Ssh7b (protein, UniProt O59632 1-64)
chain: B2 chain with T2V, Q14E, I17T
binding [11]: no binding (tested: 500 μM)

— publication PMC5112516
